According to PMC11588057:
Like-named read-outs stand apart in the source and are kept apart here. Results are given in words; binding and its absence hold for the method and conditions named. In cells and extracts the contact can be indirect. A yes stands for co-enrichment or nearness to the bait. Other partners may have been found.

By UniProt entry, the sequences of proteins in these tests, tags left out. Where a name states a change or a piece, a line headed by the entry shows the natural chain unless it says otherwise.
UniProt Q9VPB7: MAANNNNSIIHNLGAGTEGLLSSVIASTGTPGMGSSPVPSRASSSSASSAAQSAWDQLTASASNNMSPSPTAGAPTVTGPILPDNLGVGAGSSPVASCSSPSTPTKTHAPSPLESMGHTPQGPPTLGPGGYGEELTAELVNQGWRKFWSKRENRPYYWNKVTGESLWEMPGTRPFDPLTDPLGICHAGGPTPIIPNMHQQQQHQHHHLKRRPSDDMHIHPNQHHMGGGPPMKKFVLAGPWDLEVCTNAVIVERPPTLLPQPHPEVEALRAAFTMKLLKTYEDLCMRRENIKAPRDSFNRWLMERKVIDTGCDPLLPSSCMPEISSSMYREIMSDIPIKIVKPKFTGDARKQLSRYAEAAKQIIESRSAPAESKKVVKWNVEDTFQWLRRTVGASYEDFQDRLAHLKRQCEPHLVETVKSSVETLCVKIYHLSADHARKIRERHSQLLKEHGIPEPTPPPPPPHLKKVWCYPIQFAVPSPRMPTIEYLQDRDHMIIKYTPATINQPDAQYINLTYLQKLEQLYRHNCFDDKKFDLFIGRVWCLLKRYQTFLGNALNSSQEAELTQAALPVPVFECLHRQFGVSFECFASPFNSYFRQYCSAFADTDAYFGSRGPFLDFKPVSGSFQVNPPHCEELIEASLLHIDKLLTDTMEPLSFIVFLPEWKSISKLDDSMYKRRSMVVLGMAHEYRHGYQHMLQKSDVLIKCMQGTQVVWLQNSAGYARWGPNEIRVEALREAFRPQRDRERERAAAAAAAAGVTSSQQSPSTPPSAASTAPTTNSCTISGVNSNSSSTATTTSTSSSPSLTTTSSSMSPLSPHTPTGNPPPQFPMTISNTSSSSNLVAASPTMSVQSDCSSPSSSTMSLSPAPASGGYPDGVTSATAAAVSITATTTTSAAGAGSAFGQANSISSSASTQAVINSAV
UniProt P04052: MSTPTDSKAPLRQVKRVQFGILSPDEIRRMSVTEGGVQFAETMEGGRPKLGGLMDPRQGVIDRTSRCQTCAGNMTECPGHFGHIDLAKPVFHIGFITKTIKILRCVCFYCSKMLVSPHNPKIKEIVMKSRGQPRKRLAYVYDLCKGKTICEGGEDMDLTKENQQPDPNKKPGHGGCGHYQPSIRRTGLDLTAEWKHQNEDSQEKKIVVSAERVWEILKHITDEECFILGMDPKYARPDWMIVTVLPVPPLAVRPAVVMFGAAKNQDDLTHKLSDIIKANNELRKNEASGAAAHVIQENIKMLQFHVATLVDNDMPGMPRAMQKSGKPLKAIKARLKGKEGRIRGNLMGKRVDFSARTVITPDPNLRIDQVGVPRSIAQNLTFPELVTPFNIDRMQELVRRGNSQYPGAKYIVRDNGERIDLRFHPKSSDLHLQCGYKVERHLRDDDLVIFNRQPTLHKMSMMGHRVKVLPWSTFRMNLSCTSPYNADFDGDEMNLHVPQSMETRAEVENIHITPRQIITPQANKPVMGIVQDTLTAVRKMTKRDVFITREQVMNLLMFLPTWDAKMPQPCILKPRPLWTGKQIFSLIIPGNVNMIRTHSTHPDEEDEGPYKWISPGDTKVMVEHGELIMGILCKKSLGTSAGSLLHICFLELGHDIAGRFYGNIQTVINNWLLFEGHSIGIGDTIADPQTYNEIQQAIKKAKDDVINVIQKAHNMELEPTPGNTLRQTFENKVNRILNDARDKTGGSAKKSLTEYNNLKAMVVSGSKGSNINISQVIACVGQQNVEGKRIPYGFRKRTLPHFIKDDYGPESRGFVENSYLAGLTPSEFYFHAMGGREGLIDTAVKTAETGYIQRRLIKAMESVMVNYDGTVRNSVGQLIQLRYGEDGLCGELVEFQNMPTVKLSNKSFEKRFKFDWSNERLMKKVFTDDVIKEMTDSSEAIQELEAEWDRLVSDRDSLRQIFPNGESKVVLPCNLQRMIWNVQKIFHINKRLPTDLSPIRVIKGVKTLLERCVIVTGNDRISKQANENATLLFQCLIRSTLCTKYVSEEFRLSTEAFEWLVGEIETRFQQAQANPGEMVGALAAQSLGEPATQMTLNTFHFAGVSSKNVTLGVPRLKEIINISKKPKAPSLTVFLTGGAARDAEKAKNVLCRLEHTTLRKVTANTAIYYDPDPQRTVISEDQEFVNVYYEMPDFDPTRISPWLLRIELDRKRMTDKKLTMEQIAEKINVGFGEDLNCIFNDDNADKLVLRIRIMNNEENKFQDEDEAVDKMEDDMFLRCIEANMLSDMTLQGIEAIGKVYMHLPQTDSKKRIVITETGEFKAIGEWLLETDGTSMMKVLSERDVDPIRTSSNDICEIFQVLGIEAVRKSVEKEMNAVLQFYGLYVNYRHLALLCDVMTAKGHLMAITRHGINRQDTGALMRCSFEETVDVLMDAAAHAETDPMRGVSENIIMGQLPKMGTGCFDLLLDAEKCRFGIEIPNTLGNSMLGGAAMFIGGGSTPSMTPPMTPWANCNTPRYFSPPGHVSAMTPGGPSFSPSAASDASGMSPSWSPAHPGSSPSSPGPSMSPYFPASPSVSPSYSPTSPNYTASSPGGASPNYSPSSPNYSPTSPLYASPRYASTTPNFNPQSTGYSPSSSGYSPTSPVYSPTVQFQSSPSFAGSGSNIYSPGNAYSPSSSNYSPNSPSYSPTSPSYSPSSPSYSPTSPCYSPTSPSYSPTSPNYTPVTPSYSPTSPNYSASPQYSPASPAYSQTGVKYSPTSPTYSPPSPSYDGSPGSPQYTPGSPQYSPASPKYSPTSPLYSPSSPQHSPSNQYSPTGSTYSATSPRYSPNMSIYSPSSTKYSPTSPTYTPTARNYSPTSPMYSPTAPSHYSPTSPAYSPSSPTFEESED
UniProt P08985: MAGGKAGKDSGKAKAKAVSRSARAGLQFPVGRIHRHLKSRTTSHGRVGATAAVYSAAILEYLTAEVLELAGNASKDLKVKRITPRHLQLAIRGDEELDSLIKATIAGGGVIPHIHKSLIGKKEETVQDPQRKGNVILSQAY

Key:
[1] = molecular target: T1, endogenous GAGA factor (GAF) (Drosophila (endogenous in embryos)) (UniProt Q08605); test: affinity purification with mass spectrometry; co-IP of GAF from embryos at the 2 to 3 h stage, followed by mass spectroscopic analysis
T1 sequence: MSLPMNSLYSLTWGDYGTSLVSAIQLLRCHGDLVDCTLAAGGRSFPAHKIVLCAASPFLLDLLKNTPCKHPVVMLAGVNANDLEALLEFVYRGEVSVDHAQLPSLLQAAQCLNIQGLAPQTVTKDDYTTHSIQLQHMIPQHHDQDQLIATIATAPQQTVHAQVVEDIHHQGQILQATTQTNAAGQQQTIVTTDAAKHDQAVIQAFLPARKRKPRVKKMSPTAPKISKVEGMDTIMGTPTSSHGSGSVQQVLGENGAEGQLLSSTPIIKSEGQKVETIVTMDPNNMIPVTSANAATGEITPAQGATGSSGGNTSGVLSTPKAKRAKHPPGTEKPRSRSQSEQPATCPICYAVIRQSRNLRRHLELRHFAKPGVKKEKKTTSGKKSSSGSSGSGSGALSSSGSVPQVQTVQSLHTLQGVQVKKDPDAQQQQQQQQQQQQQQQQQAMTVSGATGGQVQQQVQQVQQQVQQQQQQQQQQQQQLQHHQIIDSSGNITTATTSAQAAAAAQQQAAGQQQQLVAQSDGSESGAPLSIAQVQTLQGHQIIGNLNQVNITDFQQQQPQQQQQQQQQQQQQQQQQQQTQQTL

[2] = molecular target: GFP-tagged dPCIF1 (knock-in allele dPCIF1^GFP-KI) (Drosophila (endogenous in embryos)) (UniProt Q9VPB7); test: affinity purification with mass spectrometry; co-IP with anti-GFP antibody from dPCIF1^GFP-KI early embryos (0.5 to 1.5 h), followed by mass spectroscopic analysis
[3] = molecular target: GFP-tagged dPCIF1 (knock-in allele dPCIF1^GFP-KI) (Drosophila (endogenous in embryos)) (UniProt Q9VPB7); test: as above; remark: listed apart in the source

RpII215 (Pol II subunit) (from UniProt P04052 1-1887)
binding [1]: binds
binding [2]: binds

histone H2Av (from UniProt P08985 1-141)
binding [2]: binds

B1: endogenous HIRA (protein, UniProt O17468 1-1047)
chain: MRLLKPAWVHHDDKQIFSVDIHKDCTKFATGGQGSDCGRVVIWNLLPVLSDKAEFDADVPKMLCQMDQHLACVNCVRWSQNGQNLASGSDDKLIMIWRKSAGSSGVFGTGGMQKNHESWKCFYTLRGHDGDVLDLAWSPNDVYLASCSIDNTVIIWDAQAFPHSVATLKGHTGLVKGVSWDPLGRFLASQSDDRSIKIWNTMNWSLSHTITEPFEECGGTTHILRLSWSPDGQYLVSAHAMNGGGPTAQIIEREGWKCDKDFVGHRKAVTCVRFHNSILSRQENDGSPSKPLQYCCLAVGSRDRSLSVWMTALQRPMVVIHELFNASILDLTWGPQECLLMACSVDGSIACLKFTEEELGKAISEEEQNAIIRKMYGKNYVNGLGKSAPVLEHPQRLLLPQGDKPTKFPLSNNNEANQRPISKQTETRTKDGKRRITPMFIPLHEDGPTSLSMNIVSSSGSSTTALTSCSAAIGTLPAAAPTESAATPLMPLEPLVSKIDLGRLDSRLKTQPASQRRQSLPFDPGQSNELLRTPRLEEHQSSTCSPSNLNVTATGKSEFVKAALDYRLHVSNGHLKTQHGMLAKVTASDSKEMLWEFYVGSPLVNLNLCEKYAMLCSLDGSMRLISMETGCPVFPAISLTSSAVHCAFSPDNSLVGVLTECGLLRIWDIAKKVVSLAAGCLELLNKHGTAAQFSVTNQGMPLIGFPSGNSYSYSTSLQSWLVLATKDAIMYHGIRGTLPRDMDQMQQKFPLLSMQASSQNYFSFTGSMELRHSESWQQCAKIRFIENQIKLCEALQSLDELQHWHKMLTFQLATHGSEKRMRVFLDDLLSMPEPGISQFVPKLELMQCVLDTLKPHSEWNRLHSEYTELLKECKSERQKDIFATPAPPQQKTASSAGSSPRSGEATGEEVTEKDGATAVAAAVVAGSRMAVTTGTSTTTTTTASSSLSSSGSSSSTSGSGSSSSSSSTSSLSVPQPAPSLSPEIQTLDSPTVCIDDEILSASSSLPPLDTSPVEVSPASTSGGAASTSPAASVAGSAPVSSSKTDQT
binding [1]: binds
binding [3]: binds
